Source: patent publication US9523671B2, “Indoxyl sulfate as a biomarker of prebiotic efficacy for weight gain prevention” (Nestec S.A., priority 2013, dated 2016)

System: weight gain in high fat fed animals
Experiment: Correlation of urinary metabolites with weight gain in high fat fed animals
Type: in vivo, C57BL/6 mice

**Q.** acylcarnitine [Acyl.carnitine] was tested. Which “Correlation Coefficient with Weight Gain (r value), Ratio metabolite/creatinine T7” value did it give?
**A.** −0.1396
